{"source": "PubChem BioAssay AID1259425 (University of Nebraska Medical Center, 2018)", "aim": "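Seek colon cancer weak points whose silencing resembles KSR1 loss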 (primary screen)", "cell system": "HCT116 human colon cancer cells", "knock-down reagent": "siRNA pool against human genes, 50 nM siRNA", "read-out": "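After 50 nM siRNA pool, branched-DNA assay measures six marker transcripts per well, minus blank, normalised to the geometric mean of two housekeeping transcripts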", "direction": "BNIP3L mRNA: higher = more BNIP3L transcript after knockdown; NDRG1 mRNA: higher = more NDRG1 transcript after knockdown", "note": "The whole screen tested about 14,000 reagents; below is a random part of them. The numbers tell different reagents against one gene apart. A reagent listed more than once was tested more than once; the source does not tell the runs apart. Further read-outs or replicates are left out here. The record does not give: the time to read-out."}
{"gene": "CD93 (CD93 molecule)", "reagent no.": 1, "BNIP3L mRNA, set 1": 0.0529, "NDRG1 mRNA, set 1": 0.0599}
{"gene": "TMEM184B (transmembrane protein 184B)", "reagent no.": 1, "BNIP3L mRNA, set 1": 0.0957, "NDRG1 mRNA, set 1": 0.103}
{"gene": "FSCN1 (fascin actin-bundling protein 1)", "reagent no.": 1, "BNIP3L mRNA, set 1": 0.195, "NDRG1 mRNA, set 1": 0.39}
{"gene": "PHF6 (PHD finger protein 6)", "reagent no.": 1, "BNIP3L mRNA, set 1": 0.21, "NDRG1 mRNA, set 1": 0.0466}
{"gene": "EPHB2 (EPH receptor B2)", "reagent no.": 1, "BNIP3L mRNA, set 1": 0.104, "NDRG1 mRNA, set 1": 0.231}
{"gene": "P2RY11 (purinergic receptor P2Y11)", "reagent no.": 1, "BNIP3L mRNA, set 1": 0.146, "NDRG1 mRNA, set 1": 0.747}
{"gene": "AIMP1", "reagent no.": 1, "BNIP3L mRNA, set 1": 0.0936, "NDRG1 mRNA, set 1": 0.388}
{"gene": "RMP64 (ribonuclease MRP subunit p64)", "reagent no.": 1, "BNIP3L mRNA, set 1": 0.21, "NDRG1 mRNA, set 1": 0.103}
{"gene": "LGALS7 (galectin 7)", "reagent no.": 1, "BNIP3L mRNA, set 1": 0.137, "NDRG1 mRNA, set 1": 0.293}
{"gene": "MRM2 (mitochondrial rRNA methyltransferase 2)", "reagent no.": 1, "BNIP3L mRNA, set 1": 0.0583, "NDRG1 mRNA, set 1": 0.291}
{"gene": "ACADS (acyl-CoA dehydrogenase short chain)", "reagent no.": 1, "BNIP3L mRNA, set 1": 0.114, "NDRG1 mRNA, set 1": 0.276}
{"gene": "CSDE1 (cold shock domain containing E1)", "reagent no.": 1, "BNIP3L mRNA, set 1": 0.093, "NDRG1 mRNA, set 1": 0.0809}
{"gene": "SLC13A3", "reagent no.": 1, "BNIP3L mRNA, set 1": 0.125, "NDRG1 mRNA, set 1": 0.411}
{"gene": "OR11A1 (olfactory receptor family 11 subfamily A member 1)", "reagent no.": 1, "BNIP3L mRNA, set 1": 0.292, "NDRG1 mRNA, set 1": 0.255}
{"gene": "EPS8 (EGFR pathway substrate 8, signaling adaptor)", "reagent no.": 1, "BNIP3L mRNA, set 1": 0.0828, "NDRG1 mRNA, set 1": 0.256}
{"gene": "OLFM1 (olfactomedin 1)", "reagent no.": 1, "BNIP3L mRNA, set 1": 0.0959, "NDRG1 mRNA, set 1": 0.236}
{"gene": "OLFM1 (olfactomedin 1)", "reagent no.": 1, "BNIP3L mRNA, set 1": 0.116, "NDRG1 mRNA, set 1": 0.259}
{"gene": "EMC2 (ER membrane protein complex subunit 2)", "reagent no.": 1, "BNIP3L mRNA, set 1": 0.126, "NDRG1 mRNA, set 1": 0.159}
{"gene": "NUFIP1 (nuclear FMR1 interacting protein 1)", "reagent no.": 1, "BNIP3L mRNA, set 1": 0.137, "NDRG1 mRNA, set 1": 0.202}
{"gene": "TAS2R10 (taste 2 receptor member 10)", "reagent no.": 1, "BNIP3L mRNA, set 1": 0.16, "NDRG1 mRNA, set 1": 0.205}
{"gene": "DMRTA2 (DMRT like family A2)", "reagent no.": 1, "BNIP3L mRNA, set 1": 0.0625, "NDRG1 mRNA, set 1": 0.138}
{"gene": "PAGE1 (PAGE family member 1)", "reagent no.": 1, "BNIP3L mRNA, set 1": 0.0851, "NDRG1 mRNA, set 1": 0.496}

Records listed so far whose target name starts with E or e (3):
{"gene": "EPHB2 (EPH receptor B2)", "reagent no.": 1, "BNIP3L mRNA, set 1": 0.104, "NDRG1 mRNA, set 1": 0.231}
{"gene": "EPS8 (EGFR pathway substrate 8, signaling adaptor)", "reagent no.": 1, "BNIP3L mRNA, set 1": 0.0828, "NDRG1 mRNA, set 1": 0.256}
{"gene": "EMC2 (ER membrane protein complex subunit 2)", "reagent no.": 1, "BNIP3L mRNA, set 1": 0.126, "NDRG1 mRNA, set 1": 0.159}

The results go on:
{"gene": "HP (haptoglobin)", "reagent no.": 1, "BNIP3L mRNA, set 1": 0.0572, "NDRG1 mRNA, set 1": 0.0396}
{"gene": "PDXK (pyridoxal kinase)", "reagent no.": 1, "BNIP3L mRNA, set 1": 0.0938, "NDRG1 mRNA, set 1": 0.282}
{"gene": "PDXK (pyridoxal kinase)", "reagent no.": 2, "BNIP3L mRNA, set 1": 0.171, "NDRG1 mRNA, set 1": 0.221}
{"gene": "PDXK (pyridoxal kinase)", "reagent no.": 3, "BNIP3L mRNA, set 1": 0.243, "NDRG1 mRNA, set 1": 0.136}
{"gene": "CLCA1 (chloride channel accessory 1)", "reagent no.": 1, "BNIP3L mRNA, set 1": 0.126, "NDRG1 mRNA, set 1": 0.142}
{"gene": "ANKRD12 (ankyrin repeat domain 12)", "reagent no.": 1, "BNIP3L mRNA, set 1": 0.0982, "NDRG1 mRNA, set 1": 0.133}
{"gene": "BMP2K (BMP2 inducible kinase)", "reagent no.": 1, "BNIP3L mRNA, set 1": 0.0674, "NDRG1 mRNA, set 1": 0.0857}
{"gene": "PGBD1 (piggyBac transposable element derived 1)", "reagent no.": 1, "BNIP3L mRNA, set 1": 0.0739, "NDRG1 mRNA, set 1": 0.369}
{"gene": "TIMP2 (TIMP metallopeptidase inhibitor 2)", "reagent no.": 1, "BNIP3L mRNA, set 1": 0.0644, "NDRG1 mRNA, set 1": 0.121}
{"gene": "MCUB", "reagent no.": 1, "BNIP3L mRNA, set 1": 0.109, "NDRG1 mRNA, set 1": 0.455}
{"gene": "GHDC (GH3 domain containing)", "reagent no.": 1, "BNIP3L mRNA, set 1": 0.153, "NDRG1 mRNA, set 1": 0.333}
{"gene": "NRCAM (neuronal cell adhesion molecule)", "reagent no.": 1, "BNIP3L mRNA, set 1": 0.115, "NDRG1 mRNA, set 1": 0.0857}
{"gene": "YARS2 (tyrosyl-tRNA synthetase 2)", "reagent no.": 1, "BNIP3L mRNA, set 1": 0.117, "NDRG1 mRNA, set 1": 0.443}
{"gene": "SH3PXD2B (SH3 and PX domains 2B)", "reagent no.": 1, "BNIP3L mRNA, set 1": 0.0997, "NDRG1 mRNA, set 1": 0.175}
